# Data source: PubChem BioAssay AID1259308 (NCATS, 2017)
# Test: 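Knock-downs that increase output of a recombinant reporter protein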 (primary screen)
# Cells: human HEK293 embryonic kidney cells stably expressing firefly luciferase (HEK-CMV-Luc2-Hygro)
# Reagent: single siRNA against human genes, 0.8 pmol siRNA per well
# Timing: 72 h
# Measured: 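Reporter luminescence and viable-cell signal on separate replicate plates, given as percent of non-targeting control and median/MAD z-scores, plus per-cell luciferase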
# Scale: total luciferase, z-score: higher = more reporter protein produced
# Active means: 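An siRNA counts as active if its total luciferase robust z-score exceeds 3; genes with two or more such siRNAs out of three were retested with fresh siRNAs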
# Meaning of the calls: active = raised luciferase; inactive = no rise
# In all, the deposit lists about 59,000 reagents; this is an unselected part. Of all reagents, about 1,510 (2.6%) were called active. 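Calls use total luciferase alone and ignore viability, so some active siRNAs may act by altering cell number.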 Entries without a mark were called inactive. Not all columns of the deposit are shown.
target,PubChem SID,"total luciferase, z-score"
ITPRID2,SID160717377,-0.368
ITPRID2,SID160717378,-0.169
ITPRID2,SID160717379,-1.43
CARHSP1,SID160736625,1.98
CARHSP1,SID160736626,-1.88
CARHSP1,SID160736627,-1.07
DNAJB11,SID160741269,-0.268
DNAJB11,SID160741271,-0.498
DNAJB11,SID160741272,-0.875
KIF2A,SID160776269,0.545
KIF2A,SID160776270,1.52
KIF2A,SID160776271,0.868
OLFM1,SID160724266,-1.06
OLFM1,SID160728426,1.45
OLFM1,SID160730436,1.3
DHDH,SID160724369,0.32
DHDH,SID160724370,-1.6
DHDH,SID160730972,0.787
HTRA4,SID160761100,-0.14
HTRA4,SID160761101,0.107
HTRA4,SID160761102,-0.281
AMTN,SID160767166,-0.765
AMTN,SID160767167,0.16
AMTN,SID160767168,2.1
LRRC49,SID160742285,-0.02
LRRC49,SID160742286,-0.766
LRRC49,SID160742287,0.453
HOXB9,SID160775215,-0.657
HOXB9,SID160775216,0.0389
HOXB9,SID160775217,-1.06
BSN,SID160721151,-1.29
BSN,SID160721152,-0.426
BSN,SID160721154,0.0411
PRMT7,SID160741789,2.65
PRMT7,SID160741790,-0.734
PRMT7,SID160741791,-0.222
TRMT61B,SID160742724,-1.08
TRMT61B,SID160742725,-0.792
TRMT61B,SID160742726,-0.084
CXCL9,SID160777255,-0.869
CXCL9,SID160777256,-0.717
CXCL9,SID160777257,0.0202
ZMYM2,SID160719261,-0.751
ZMYM2,SID160719262,-0.146
ZMYM2,SID160719263,-0.474
DLX4,SID160730711,-2.35
DLX4,SID160754805,-1.82
DLX4,SID160754814,-0.8
CATSPERG,SID160746757,1.25
CATSPERG,SID160746758,0.467
CATSPERG,SID160746759,0.265
GLRA3,SID160719546,0.175
GLRA3,SID160719547,-0.621
GLRA3,SID160719549,-0.999
IFT88,SID160719637,0.388
IFT88,SID160719638,-0.0117
IFT88,SID160731959,0.0698
CMTM6,SID160733567,0.612
CMTM6,SID160742490,-1.78
CMTM6,SID160742492,0.837
MIR99AHG,SID160733216,-1.66
MIR99AHG,SID160766002,-1.76
MIR99AHG,SID160766003,-1.09
FAU,SID160723756,-2.63
FAU,SID160764083,-2
FAU,SID160764095,0.326
ALKBH8,SID160754109,-0.641
ALKBH8,SID160754110,-1.72
ALKBH8,SID160754111,-0.539
MZT1,SID160733381,0.643
MZT1,SID160767718,-0.0533
MZT1,SID160767719,2.98
BMERB1,SID160753509,0.0119
BMERB1,SID160753510,0.0775
BMERB1,SID160753511,-2.08

4 entries from above in another layout.
LRRC49 [SID160742286]: total luciferase, z-score = -0.766
LRRC49 [SID160742287]: total luciferase, z-score = 0.453
HOXB9 [SID160775215]: total luciferase, z-score = -0.657
HOXB9 [SID160775216]: total luciferase, z-score = 0.0389
